Data as given in patent US20170080049A1, “MEDICINE AGAINST GROWTH FAILURE INDUCED BY ADMINISTRATION OF STEROID” (DAIICHI SANKYO COMPANY, LIMITED, priority 2014, published 2017).
For some of these results: At least one peptide structure holds a part that was inferred or is arguable (an end, a ring closure or a residue). Some entries repeat one wording, which the source may state once for all of them. For some of these results: At least one structure is not confirmed: it was looked up by name or label, or the drawing left a doubt. Positions of bridges follow the written chain, without caps; N, C: chain ends. Residues, ends and D or L forms follow the SMILES beside them. No end group written: not given here.

Tests used:
[1] = system: dexamethasone-induced rat growth failure model; assay: Combined administration study of human-type CNP-53 or various CNP derivatives in dexamethasone-induced rat growth failure model (Example 3); format: in vivo; conditions: for femur length vs single administration group of dexamethasone (in words) / elongation of the body length and the tail length vs single administration group of dexamethasone (in words): combined with dexamethasone, 28 days; for elongation of the body length and the tail length vs single administration group of dexamethasone (in words): p<0.05 or 0.01; for Body weight at dissection / Body length at dissection / Body length, variation from preadministration value (Δ value) / Body weight, variation from preadministration value (Δ value) / Right femur length at dissection / Tail length at dissection / Tail length, variation from preadministration value (Δ value): dexamethasone 0.67 mg/mL pump alone or combined with 15 mg/mL pump of the CNP peptide, 5-week-old male Wistar rat, n=5; for Body weight at dissection: 0.25 μL/hr continuous s.c. 28 days, mean ± SD; for Body length at dissection / Body length, variation from preadministration value (Δ value) / Body weight, variation from preadministration value (Δ value) / Right femur length at dissection / Tail length at dissection / Tail length, variation from preadministration value (Δ value): continuous s.c. 28 days
Method: Osmotic pumps (MINI-OSMOTIC PUMP Model 2004, available from DURECT CORPORATION, flow rate: 0.25 μL/hr, for 28 days) were charged with 0.67 mg/mL solution of dexamethasone (dexamethasone injection “KS”, available from Kyoritsuseiyaku Corporation) and one osmotic pump was embedded in the hypoderm of the back of each 5-week-old male Crlj:WI (Wistar) rat (5 animals/group, Groups 2 to 6, a total of 25 animals). At the same time, one osmotic pump (the same as above) charged with a 15 mg/mL solution of CNP derivative (A) in Group 3, human-type CNP-53 in Group 4, CNP derivative (B) in Group 5 and CNP derivative (C) in Group 6 was embedded in the hypoderm of the back simultaneously. No substance was administered to the normal control group (Group 1, 5 animals). Then the animals were fed for 28 days, and transitions of the body weight, the body length and the tail length were measured. On the final day, the blood was collected from the abdominal aorta and the animals were caused to die under isoflurane anesthesia, and plasma was separated from the collected blood and the cholesterol concentration was determined by using a “LabAssay (trademark) cholesterol” (available from Wako Pure Chemical Industries, Ltd.). After collecting the blood and causing the animals to die, the right femur and thymus were extracted, and the length of the right femur and the weight of the thymus were measured.

[2] = system: rat growth failure induced by dexamethasone; assay: Action comparing study between CNP derivative (A) and human growth hormone on rat growth failure induced by dexamethasone (Example 6); format: in vivo; conditions: histology, toluidine blue (FIG. 5); tendency; combinations compared with dexamethasone only
Method: Osmotic pumps (MINI-OSMOTIC PUMP Model 2004, available from DURECT CORPORATION, flow rate: 0.25 μL/hr, for 28 days) were charged with a 0.67 mg/mL solution of dexamethasone (dexamethasone injection “KS”, available from Kyoritsuseiyaku Corporation), and one osmotic pump was embedded in the hypoderm of the back of each 4-week-old male Crlj:WI (Wistar) rat (5 animals/group, Group 2 to Group 4, total of 15 animals). For Group 3, a 1 mg/mL solution of CNP derivative (A) (medium: 0.03 mol/L acetate buffer (pH 4.0)/1% benzyl alcohol/10% sucrose), and for Group 4, a 1 mg/mL solution of human-type growth hormone preparation (somatropin BS subcutaneous injection 10 mg “SANDOZ”) diluted with a phosphate buffer was administered to the hypoderm of the back of five rats, respectively, in a volume of 2 mL/kg once a day for 28 days. No substance was administered to the normal control group (5 animals, Group 1). On the final day, after measuring the body weight, the body length and the tail length, the blood was collected from the abdominal aorta and the animal was caused to die under isoflurane anesthesia, the left femur was extracted and the bone length was measured, and then a histopathological specimen of the epiphyseal region was prepared.

Compound	femur length vs single administration group of dexamethasone (in words) [1]	elongation of the body length and the tail length vs single administration group of dexamethasone (in words) [1]	Body weight at dissection [1] [g]	Body length at dissection [1] [mm]	Body length, variation from preadministration value (Δ value) [1]	Body weight, variation from preadministration value (Δ value) [1]	Right femur length at dissection [1] [mm]	Tail length at dissection [1] [mm]	Tail length, variation from preadministration value (Δ value) [1]	growth plate cartilage layer of the epiphyseal region of the left femur (in words) [2]
CC[C@H](C)[C@@H]1NC(=O)[C@H](CCCNC(=N)N)NC(=O)[C@H](CC(=O)O)NC(=O)[C@H](CC(C)C)NC(=O)[C@H](CCCCN)NC(=O)[C@H](CC(C)C)NC(=O)CNC(=O)[C@H](Cc2ccccc2)NC(=O)[C@@H](NC(=O)CNC(=O)[C@H](CCCCN)NC(=O)[C@H](CO)NC(=O)[C@H](CC(C)C)NC(=O)CNC(=O)[C@H](CCCCN)NC(=O)[C@H](CCCCN)NC(=O)[C@H](CC(N)=O)NC(=O)[C@H](C)NC(=O)CNC(=O)[C@H](CCCCN)NC(=O)[C@H](Cc2ccc(O)cc2)NC(=O)[C@H](CCCCN)NC(=O)[C@H](CCCNC(=N)N)NC(=O)[C@H](C)NC(=O)[C@H](CC(N)=O)NC(=O)[C@@H]2CCCN2C(=O)[C@H](Cc2c[nH]cn2)NC(=O)[C@H](CCC(=O)O)NC(=O)[C@H](CCC(N)=O)NC(=O)CNC(=O)[C@@H]2CCCN2)CSSC[C@@H](C(=O)O)NC(=O)CNC(=O)[C@H](CC(C)C)NC(=O)CNC(=O)[C@H](CO)NC(=O)[C@H](CCSC)NC(=O)[C@H](CO)NC(=O)CNC1=O [CNP derivative (B), Pro-Gly-CNP-37]	tendency of being longer	significantly promoted	304 ± 23	210 ± 10	(36.2 ± 9.3) mm	(133 ± 18) g	34.1 ± 1.7	205 ± 6	(41.6 ± 4.3) mm	
CC[C@H](C)[C@@H]1NC(=O)[C@H](CCCNC(=N)N)NC(=O)[C@H](CC(=O)O)NC(=O)[C@H](CC(C)C)NC(=O)[C@H](CCCCN)NC(=O)[C@H](CC(C)C)NC(=O)CNC(=O)[C@H](Cc2ccccc2)NC(=O)[C@@H](NC(=O)CNC(=O)[C@H](CCCCN)NC(=O)[C@H](CO)NC(=O)[C@H](CC(C)C)NC(=O)CN)CSSC[C@@H](C(=O)N[C@H](C(=O)N[C@@H](CCC(N)=O)C(=O)N[C@@H](CCC(N)=O)C(=O)N[C@@H](CCCNC(=N)N)C(=O)N[C@@H](CCCCN)C(=O)N[C@@H](CCC(=O)O)C(=O)N[C@@H](CO)C(=O)N[C@@H](CCCCN)C(=O)N[C@@H](CCCCN)C(=O)N2CCC[C@H]2C(=O)N2CCC[C@H]2C(=O)N[C@@H](C)C(=O)N[C@@H](CCCCN)C(=O)N[C@@H](CC(C)C)C(=O)N[C@@H](CCC(N)=O)C(=O)N2CCC[C@H]2C(=O)N[C@@H](CCCNC(=N)N)C(=O)O)C(C)C)NC(=O)CNC(=O)[C@H](CC(C)C)NC(=O)CNC(=O)[C@H](CO)NC(=O)[C@H](CCSC)NC(=O)[C@H](CO)NC(=O)CNC1=O [CNP derivative (C), CNP (1-22) Ghrelin (12-28, SEQ ID NO: 8)] (H-GLSKGCFGLKLDRIGSMSGLGCVQQRKESKKPPAKLQPR-OH; disulfide 6-22)	tendency of being longer	significantly promoted	305 ± 12	208 ± 6	(34.2 ± 7.4) mm	(135 ± 11) g	34.1 ± 0.2	205 ± 1	(41.6 ± 1.9) mm	
C[C@@H]1C[C@H]2[C@@H]3CCC4=CC(=O)C=C[C@]4(C)[C@@]3(F)[C@@H](O)C[C@]2(C)[C@@]1(O)C(=O)CO [Dexamethasone, dexamethasone, reference compound]										narrowing
DLRVDTKSRAAWARLLQEHPNARKYKGANKKGLSKGCFGLKLDRIGSMSGLGC (disulfide 37-53) [human-type CNP-53]	tendency of being longer	significantly promoted	302 ± 7	208 ± 4	(34.4 ± 6.0) mm	(130 ± 12) g	34.1 ± 1.3	210 ± 4	(44.6 ± 7.5) mm	
